# Some of these results come from one statement about several compounds together.
# Tested on: local peripheral and generalized pain
# Assay: Nuchal (BONATH) application of compounded opioids for pain relief in patients
# Conditions: applied at the nuchal region
# Description: Previously described has is the “nuchal” (back of the neck at the hairline, or “BONATH”) application of triptans (Migraderm using sumatriptan) for migraine headache, tizanidine (Tizoderm) for cervical spasm and tension headache; and, apomorphine for the Parkinson's disease symptoms of tremor, rigidity, speech difficulties, and other “non-motor” symptoms.
row,Structure (SMILES),Pain reduction in treated patients
1,CN1CC[C@]23c4c5ccc(O)c4O[C@H]2[C@@H](O)C=C[C@H]3[C@H]1C5.O=S(=O)(O)O [morphine sulfate],30-60%
2,COc1cccc(C2(O)CCCCC2CN(C)C)c1 (centres unmarked) [tramadol],30-60%
